Laboratory results as given in patent US20240351995A1, “(3-PIRYDYL)-QUINAZOLINE” (BASF SE, priority 2021, published 2024).
Some results were stated once for a whole list of compounds, not compound by compound.

Legend:
Botrytis cinerea = assay: Microtest: activity against the grey mold Botrytis cinerea in the microtiterplate test; format: cell-based; conditions: 31 ppm; relative to active compound-free control (100%)
Septoria tritici = assay: Microtest: activity against leaf blotch on wheat caused by Septoria tritici; format: cell-based; conditions: 31 ppm; relative to active compound-free control (100%)

Cc1cc(C2=NC(C)(C3CC3)N(C#N)c3c(F)cccc32)cnc1C(F)F (racemic) [Ex-57]
growth of the pathogen (relative growth in %) (Botrytis cinerea): up to 14%

COCC1(C)N=C(c2cnc(C(F)F)c(C)c2)c2cccc(F)c2N1 (racemic) [Ex-58]
growth of the pathogen (relative growth in %) (Botrytis cinerea): up to 14%

COCC1(C)N=C(c2cnc(C(F)F)c(C)c2)c2cccc(F)c2N1C (racemic) [Ex-59]
growth of the pathogen (relative growth in %) (Botrytis cinerea): up to 14%

COCC1(C)N=C(c2cnc(C(F)F)c(C)c2)c2cccc(F)c2N1C#N (racemic) [Ex-79]
growth of the pathogen (relative growth in %) (Botrytis cinerea): up to 14%

Cc1cc(C2=NC(C)(c3ccccn3)N(C#N)c3c(F)cccc32)cnc1C(F)F (racemic) [Ex-95]
growth of the pathogen (relative growth in %) (Botrytis cinerea): up to 14%

COC(=O)CC1(C)N=C(c2cnc(C(F)F)c(C)c2)c2cccc(F)c2N1 (racemic) [Ex-96]
growth of the pathogen (relative growth in %) (Botrytis cinerea): up to 14%

Cc1cc(C2=NC(C)(CCC(Cl)(Cl)Cl)Nc3c(F)cccc32)cnc1C(F)F (racemic) [Ex-150]
growth of the pathogen (relative growth in %) (Botrytis cinerea): up to 14%

Cc1cc(C2=NC(C)(CC(N)=O)N(C)c3c(F)cccc32)cnc1C(F)F (racemic) [Ex-151]
growth of the pathogen (relative growth in %) (Botrytis cinerea): up to 14%

CCC(=O)N1c2c(F)cccc2C(c2cnc(C(F)F)c(C)c2)=NC1(C)C [Ex-17]
growth of the pathogen (relative growth in %) (Botrytis cinerea): up to 14%

Cc1cc(C2=NC(C)(C)Nc3cc(F)ccc32)cnc1C(F)F [Ex-24]
growth of the pathogen (relative growth in %) (Botrytis cinerea): up to 14%

Cc1cc(C2=NC(C)(C)Nc3c(Br)cccc32)cnc1C(F)F [Ex-49]
growth of the pathogen (relative growth in %) (Botrytis cinerea): up to 14%

Cc1cc(C2=NC(C)(C)N(C#N)c3c(Br)cccc32)cnc1C(F)F [Ex-51]
growth of the pathogen (relative growth in %) (Botrytis cinerea): up to 14%

Cc1cc(C2=NC(C)(C)Nc3c(C)cccc32)cnc1C(F)F [Ex-52]
growth of the pathogen (relative growth in %) (Botrytis cinerea): up to 14%

CCCCN1c2c(F)cccc2C(c2cnc(C)c(C)c2)=NC1(C)C [Ex-64]
growth of the pathogen (relative growth in %) (Botrytis cinerea): up to 14%
growth of the pathogen (relative growth in %) (Septoria tritici): up to 20%

CCN1c2c(F)cccc2C(c2cnc(C)c(C)c2)=NC1(C)C [Ex-65]
growth of the pathogen (relative growth in %) (Botrytis cinerea): up to 14%
growth of the pathogen (relative growth in %) (Septoria tritici): up to 20%

Cc1cc(C2=NC(C)(C)N(Cc3ccncc3)c3c(F)cccc32)cnc1C [Ex-67]
growth of the pathogen (relative growth in %) (Botrytis cinerea): up to 14%

Cc1cc(C2=NC(C)(C)N(Cc3ccc(F)cc3)c3ccccc32)cnc1C [Ex-68]
growth of the pathogen (relative growth in %) (Botrytis cinerea): up to 14%
growth of the pathogen (relative growth in %) (Septoria tritici): up to 20%

Cc1cc(C2=NC(C)(C)N(Cc3ccc(F)cc3)c3c(F)cccc32)cnc1C [Ex-69]
growth of the pathogen (relative growth in %) (Botrytis cinerea): up to 14%
growth of the pathogen (relative growth in %) (Septoria tritici): up to 20%

Cc1cc(C2=NC(C)(C)N(Cc3ccccn3)c3c(F)cccc32)cnc1C(F)F [Ex-70]
growth of the pathogen (relative growth in %) (Botrytis cinerea): up to 14%
growth of the pathogen (relative growth in %) (Septoria tritici): up to 20%

Cc1cc(C2=NC(C)(C)N(Cc3ccc(Cl)cc3)c3c(F)cccc32)cnc1C(F)F [Ex-71]
growth of the pathogen (relative growth in %) (Botrytis cinerea): up to 14%
growth of the pathogen (relative growth in %) (Septoria tritici): up to 20%

Cc1cc(C2=NC(C)(C)N(Cc3cccc(Cl)c3)c3c(F)cccc32)cnc1C(F)F [Ex-72]
growth of the pathogen (relative growth in %) (Botrytis cinerea): up to 14%

Cc1cc(C2=NC(C)(C)N(Cc3ccccc3Cl)c3c(F)cccc32)cnc1C(F)F [Ex-73]
growth of the pathogen (relative growth in %) (Botrytis cinerea): up to 14%
growth of the pathogen (relative growth in %) (Septoria tritici): up to 20%

Cc1cc(C2=NC(C)(C)N(Cc3ccc(F)cc3)c3c(F)cccc32)cnc1C(F)F [Ex-74]
growth of the pathogen (relative growth in %) (Botrytis cinerea): up to 14%
growth of the pathogen (relative growth in %) (Septoria tritici): up to 20%

Cc1cc(C2=NC(C)(C)N(Cc3cccc(F)c3)c3c(F)cccc32)cnc1C(F)F [Ex-75]
growth of the pathogen (relative growth in %) (Botrytis cinerea): up to 14%
growth of the pathogen (relative growth in %) (Septoria tritici): up to 20%

Cc1cc(C2=NC(C)(C)N(Cc3ccccc3F)c3c(F)cccc32)cnc1C(F)F [Ex-76]
growth of the pathogen (relative growth in %) (Botrytis cinerea): up to 14%
growth of the pathogen (relative growth in %) (Septoria tritici): up to 20%

Cc1cc(C2=NC(C)(C)N(Cc3ccccc3)c3c(F)cccc32)cnc1C(F)F [Ex-77]
growth of the pathogen (relative growth in %) (Botrytis cinerea): up to 14%
growth of the pathogen (relative growth in %) (Septoria tritici): up to 20%

Cc1cc(C2=NC(C)(C)N(Cc3ccc(C#N)cc3)c3c(F)cccc32)cnc1C [Ex-83]
growth of the pathogen (relative growth in %) (Botrytis cinerea): up to 14%

Cc1cc(C2=NC(C)(C)N(Cc3ccc(C#N)cc3)c3ccccc32)cnc1C [Ex-84]
growth of the pathogen (relative growth in %) (Botrytis cinerea): up to 14%

Cc1cc(C2=NC(C)(C)N(C)c3c(C#N)cccc32)cnc1C(F)F [Ex-85]
growth of the pathogen (relative growth in %) (Botrytis cinerea): up to 14%

Cc1cc(C2=NC(C)(C)N(C#N)c3c(C#N)cccc32)cnc1C(F)F [Ex-86]
growth of the pathogen (relative growth in %) (Botrytis cinerea): up to 14%

Cc1cc(C2=NC(C)(C)Nc3c(C#C[Si](C)(C)C)cccc32)cnc1C(F)F [Ex-88]
growth of the pathogen (relative growth in %) (Botrytis cinerea): up to 14%

Cc1cc(C2=NC(C)(C)Nc3c2ccc(F)c3F)cnc1C(F)F [Ex-90]
growth of the pathogen (relative growth in %) (Botrytis cinerea): up to 14%

Cc1cc(C2=NC(C)(C)Nc3c2ccc(Br)c3C)cnc1C(F)F [Ex-92]
growth of the pathogen (relative growth in %) (Botrytis cinerea): up to 14%
growth of the pathogen (relative growth in %) (Septoria tritici): up to 20%

Cc1cc(C2=NC(C)(C)N(C)c3c2ccc(Br)c3C)cnc1C(F)F [Ex-93]
growth of the pathogen (relative growth in %) (Botrytis cinerea): up to 14%
growth of the pathogen (relative growth in %) (Septoria tritici): up to 20%

Cc1cc(C2=NC(C)(C)N(C#N)c3c2ccc(Br)c3C)cnc1C(F)F [Ex-94]
growth of the pathogen (relative growth in %) (Botrytis cinerea): up to 14%
growth of the pathogen (relative growth in %) (Septoria tritici): up to 20%

Cc1cc(C2=NC(C)(C)N(CCF)c3c(F)cccc32)cnc1C(F)F [Ex-97]
growth of the pathogen (relative growth in %) (Botrytis cinerea): up to 14%
growth of the pathogen (relative growth in %) (Septoria tritici): up to 20%

Cc1cc(C2=NC(C)(C)N(Cc3cccc(C#N)c3)c3c(F)cccc32)cnc1C(F)F [Ex-98]
growth of the pathogen (relative growth in %) (Botrytis cinerea): up to 14%

Cc1cc(C2=NC(C)(C)N(Cc3ccc(C#N)cc3)c3c(F)cccc32)cnc1C(F)F [Ex-99]
growth of the pathogen (relative growth in %) (Botrytis cinerea): up to 14%

Cc1cc(C2=NC(C)(C)N(Cc3cccnc3)c3c(F)cccc32)cnc1C(F)F [Ex-100]
growth of the pathogen (relative growth in %) (Botrytis cinerea): up to 14%

C=CCN1c2c(F)cccc2C(c2cnc(C(F)F)c(C)c2)=NC1(C)C [Ex-101]
growth of the pathogen (relative growth in %) (Botrytis cinerea): up to 14%
growth of the pathogen (relative growth in %) (Septoria tritici): up to 20%

C#CCN1c2c(F)cccc2C(c2cnc(C(F)F)c(C)c2)=NC1(C)C [Ex-102]
growth of the pathogen (relative growth in %) (Botrytis cinerea): up to 14%
growth of the pathogen (relative growth in %) (Septoria tritici): up to 20%

CCCN1c2c(F)cccc2C(c2cnc(C)c(C)c2)=NC1(C)C [Ex-103]
growth of the pathogen (relative growth in %) (Botrytis cinerea): up to 14%
growth of the pathogen (relative growth in %) (Septoria tritici): up to 20%

C=CCN1c2ccccc2C(c2cnc(C)c(C)c2)=NC1(C)C [Ex-104]
growth of the pathogen (relative growth in %) (Botrytis cinerea): up to 14%

Cc1cc(C2=NC(C)(CCCl)Nc3c(F)cccc32)cnc1C(F)F (centres unmarked) [Ex-109]
growth of the pathogen (relative growth in %) (Botrytis cinerea): up to 14%

Cc1cc(C2=NC(C)(Cc3ccccc3)Nc3c(F)cccc32)cnc1C(F)F (centres unmarked) [Ex-110]
growth of the pathogen (relative growth in %) (Botrytis cinerea): up to 14%

Cc1cc(C2=NC(C)(C)N(Cc3ccccc3C#N)c3c(F)cccc32)cnc1C(F)F [Ex-111]
growth of the pathogen (relative growth in %) (Botrytis cinerea): up to 14%

Cc1cc(C2=NC(C)(C)N(Cc3ccncc3)c3c(F)cccc32)cnc1C(F)F [Ex-112]
growth of the pathogen (relative growth in %) (Botrytis cinerea): up to 14%

CC#CCN1c2ccccc2C(c2cnc(C)c(C)c2)=NC1(C)C [Ex-114]
growth of the pathogen (relative growth in %) (Botrytis cinerea): up to 14%

Cc1cc(C2=NC(C)(C)N(CC(=O)OC(C)(C)C)c3c(F)cccc32)cnc1C(F)F [Ex-117]
growth of the pathogen (relative growth in %) (Botrytis cinerea): up to 14%

Cc1cc(C2=NC(C)(C)N(CC(C)(C)C)c3c(F)cccc32)cnc1C(F)F [Ex-119]
growth of the pathogen (relative growth in %) (Botrytis cinerea): up to 14%

Cc1cc(C2=NC(C)(C)N(CC3CCC3)c3c(F)cccc32)cnc1C(F)F [Ex-120]
growth of the pathogen (relative growth in %) (Botrytis cinerea): up to 14%

COC(=O)CC1(C)N=C(c2cnc(C(F)F)c(C)c2)c2cccc(F)c2N1C (centres unmarked) [Ex-121]
growth of the pathogen (relative growth in %) (Botrytis cinerea): up to 14%

Cc1cc(C2=NC(C)(Cc3ccccc3)N(C#N)c3c(F)cccc32)cnc1C(F)F (centres unmarked) [Ex-122]
growth of the pathogen (relative growth in %) (Botrytis cinerea): up to 14%

Cc1cc(C2=NC(C)(C)Nc3c2ccc(C)c3F)cnc1C(F)F [Ex-128]
growth of the pathogen (relative growth in %) (Botrytis cinerea): up to 14%

Cc1cc(C2=NC(C)(C)N(CC3COC3)c3c(F)cccc32)cnc1C(F)F [Ex-131]
growth of the pathogen (relative growth in %) (Botrytis cinerea): up to 14%

COc1ccc2c(c1F)NC(C)(C)N=C2c1cnc(C(F)F)c(C)c1 [Ex-133]
growth of the pathogen (relative growth in %) (Botrytis cinerea): up to 14%

COc1ccc2c(c1F)N(C#N)C(C)(C)N=C2c1cnc(C(F)F)c(C)c1 [Ex-135]
growth of the pathogen (relative growth in %) (Botrytis cinerea): up to 14%

Cc1cc(C2=NC(C)(C)Nc3c2ccc(C)c3C)cnc1C(F)F [Ex-136]
growth of the pathogen (relative growth in %) (Botrytis cinerea): up to 14%

Cc1cc(C2=NC(C)(C)N(CC3CCCC3)c3c(F)cccc32)cnc1C(F)F [Ex-139]
growth of the pathogen (relative growth in %) (Botrytis cinerea): up to 14%

Cc1cc(C2=NC(C)(C)N(CC(=O)O)c3c(F)cccc32)cnc1C(F)F [Ex-143]
growth of the pathogen (relative growth in %) (Botrytis cinerea): up to 14%

Cc1cc(C2=NC(C)(C)Nc3c2cccc3C(F)F)cnc1C(F)F [Ex-153]
growth of the pathogen (relative growth in %) (Botrytis cinerea): up to 14%

Cc1cc(C2=NC(C)(C)N(CC(=O)OC(C)C)c3c(F)cccc32)cnc1C(F)F [Ex-154]
growth of the pathogen (relative growth in %) (Botrytis cinerea): up to 14%

Cc1cc(C2=NC(C)(C)N(CC(=O)N(C)C)c3c(F)cccc32)cnc1C(F)F [Ex-157]
growth of the pathogen (relative growth in %) (Botrytis cinerea): up to 14%

Cc1cc(C2=NC(C)(C)N(C#N)c3c2cccc3C(F)F)cnc1C(F)F [Ex-159]
growth of the pathogen (relative growth in %) (Botrytis cinerea): up to 14%

Cc1cc(C2=NC(C)(C)N(c3ccccc3)c3c(F)cccc32)cnc1C(F)F [Ex-162]
growth of the pathogen (relative growth in %) (Botrytis cinerea): up to 14%

CC1(C)N=C(c2cnc3c(c2)CCCC3)c2cccc(F)c2N1 [Ex-163]
growth of the pathogen (relative growth in %) (Botrytis cinerea): up to 14%

Cc1cc(C2=NC(C)(C)N(CC(Cl)Cl)c3c(F)cccc32)cnc1C(F)F [Ex-171]
growth of the pathogen (relative growth in %) (Botrytis cinerea): up to 14%

Cc1cc(C2=NC(C)(C)N(CCC#N)c3c(F)cccc32)cnc1C(F)F [Ex-172]
growth of the pathogen (relative growth in %) (Botrytis cinerea): up to 14%
